Assay results taken from patent US9950062B2, “Compounds and compositions as TLR activity modulators” (priority 2009, dated 2018).
For some assays here: The name of at least one read-out is uncertain. Some of these results come from one statement about several compounds together.

Columns and labels:
[1] = Stability studies of adsorbed compounds; conditions: for adsorption to aluminium hydroxide adjuvant over time: over at least a 3 week period
[2] = Adsorption to and desorption from aluminum hydroxide, HPLC (compound-modified alum formulation); assay type: physicochemical; conditions: desorption with 0.5M KH2PO4
Method: SDS-PAGE was used to evaluate the effect of the binding of compound 1 to aluminum hydroxide adjuvant on the ability of MenB antigens to bind to aluminum hydroxide adjuvant. Compound 1 was dissolved in 10 mM NaOH at 0.5 mg/ml final concentration. Alum and Compound 1 were combined at 1:6 (Compound 1:Alum) weight ratio in the presence of 10 mM Histidine final concentration. The pH was adjusted to 9.2 and the mixture was gently agitated for 3 hours at room temperature, allowing the reaction to occur. The mixture was centrifuged at 5000×g for 10 minutes and the supernatant discarded. The pellet (i.e. the compound 1-modified Alum) was resuspended in the initial Alum buffer to obtain the starting alum concentration. The pH was adjusted to 6.5. The modified Alum was then used for the formulation with the MenB antigens.
The adsorption of compound 16 and compound 17 to aluminum hydroxide was also evaluated using the alum formulation described above for compound 1. […] In addition, SDS-PAGE analysis of antigen binding in the presence of compound 16 or compound 17 was carried out as described above.

| SMILES | adsorption to aluminium hydroxide adjuvant over time [1] | recovery of compound after desorption from aluminum hydroxide [2] | stability of adsorbed compound (compound stability and adsorption) ([1]; adsorbed to aluminium hydroxide adjuvant) |
| --- | --- | --- | --- |
| Cc1ccc2c(c1)nc(N)c1ncc(CCc3ccc(OCCOCCOCCC(F)(F)P(=O)(O)O)cc3C)cc12 [Compound 6, 3-(2-(2-(4-(2-(5-amino-8-methylbenzo[f][1,7]naphthyridin-2-yl)ethyl)-3-methylphenoxy)ethoxy)ethoxy)-1,1-difluoropropylphosphonic acid] | at least 95% | – | – |
| Cc1cc(OCCOCCOCCC(F)(F)P(=O)(O)O)ccc1CCc1cnc2c(N)nc3cc(CCC(=O)O)ccc3c2c1 [Compound 17, 3-(5-amino-2-(4-(2-(2-(3,3-difluoro-3-phosphonopropoxy)ethoxy)ethoxy)-2-methylphenethyl)benzo[f][1,7]naphthyridin-8-yl)propanoic acid] | at least 95% | recovered | – |
| Cc1cc(OCCOCCC(F)(F)P(=O)(O)O)ccc1CCc1cnc2c(N)nc3cc(CCC(=O)O)ccc3c2c1 [Compound 19, 3-(5-amino-2-(4-(2-(3,3-difluoro-3-phosphonopropoxy)ethoxy)-2-methylphenethyl)benzo[f][1,7]naphthyridin-8-yl)propanoic acid] | at least 95% | – | – |
| Cc1cc(OCCOCCOCCP(=O)(O)O)ccc1CCc1cnc2c(N)nc3cc(CCC(=O)O)ccc3c2c1 [Compound 20, 3-(5-amino-2-(2-methyl-4-(2-(2-(2-phosphonoethoxy)ethoxy)ethoxy)phenethyl)benzo[f][1,7]naphthyridin-8-yl)propanoic acid] | – | – | ≥ 6 weeks |
